# Data reported in US8486950B2, “Janus kinase inhibitor compounds and methods” (F. Hoffmann-La Roche AG, priority 2009, dated 2013).
# Some of these results come from one statement about several compounds together.
# Target: T1, TYK2 kinase domain (Homo sapiens, UniProt P29597)
# T1 construct: made in house; host or cells: SF9 insect cells (recombinant baculovirus)
# T1 sequence (P29597 873-1187): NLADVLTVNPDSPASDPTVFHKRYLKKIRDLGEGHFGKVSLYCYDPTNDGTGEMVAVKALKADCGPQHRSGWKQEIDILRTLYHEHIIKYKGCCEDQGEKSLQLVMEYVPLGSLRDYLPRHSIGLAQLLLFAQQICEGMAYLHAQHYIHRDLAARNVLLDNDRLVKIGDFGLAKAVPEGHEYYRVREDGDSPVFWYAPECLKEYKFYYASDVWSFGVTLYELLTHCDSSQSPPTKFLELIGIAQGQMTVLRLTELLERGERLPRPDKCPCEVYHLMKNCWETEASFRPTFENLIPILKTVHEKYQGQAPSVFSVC
# Assay: TYK2 inhibition assay (Caliper LabChip, isolated kinase domain)
# Type: biochemical
# Details: 25 uM ATP, values given as 'about'
row,Ki,Structure (SMILES)
1,< 3.5 µM,"CCc1cc(Nc2cc(NC(=O)c3c(Cl)cccc3Cl)ccn2)nc(N2CCC2)n1 [Example 578, N-(2-(2-(azetidin-1-yl)-6-ethylpyrimidin-4-ylamino)pyridin-4-yl)-2,6-dichlorobenzamide]"
2,< 3.5 µM,"CCc1cc(Nc2cc(NC(=O)c3c(Cl)cccc3Cl)ccn2)nc(N(CCO)CCO)n1 [Example 579, N-(2-(2-(bis(2-hydroxyethyl)amino)-6-ethylpyrimidin-4-ylamino)pyridin-4-yl)-2,6-dichlorobenzamide]"
3,< 3.5 µM,"CCc1nc(C)cc(Nc2cc(NC(=O)c3c(Cl)cccc3Cl)ccn2)n1 [Example 580, 2,6-dichloro-N-(2-(2-ethyl-6-methylpyrimidin-4-ylamino)pyridin-4-yl)benzamide]"
4,< 3.5 µM,"Cc1cc(Nc2cc(NC(=O)c3c(Cl)cccc3Cl)ccn2)nc(C(C)C)n1 [Example 581, 2,6-dichloro-N-(2-(2-isopropyl-6-methylpyrimidin-4-ylamino)pyridin-4-yl)benzamide]"
5,< 3.5 µM,"Cc1cc(Nc2cc(NC(=O)c3c(Cl)cccc3Cl)ccn2)nc(C2CC2)n1 [Example 582, 2,6-dichloro-N-(2-(2-cyclopropyl-6-methylpyrimidin-4-ylamino)pyridin-4-yl)benzamide]"
6,< 3.5 µM,"CCc1cc(Nc2cc(NC(=O)c3c(Cl)cccc3Cl)ccn2)nc(N2CCN(S(C)(=O)=O)CC2)n1 [Example 583, 2,6-dichloro-N-(2-(6-ethyl-2-(4-(methylsulfonyl)piperazin-1-yl)pyrimidin-4-ylamino)pyridin-4-yl)benzamide]"
7,< 3.5 µM,"CCc1cc(Nc2cc(NC(=O)c3c(Cl)cccc3Cl)ccn2)nc(NC(C)(C)C)n1 [Example 584, N-(2-(2-(tert-butylamino)-6-ethylpyrimidin-4-ylamino)pyridin-4-yl)-2,6-dichlorobenzamide]"
8,< 3.5 µM,"CCc1cc(Nc2cc(NC(=O)c3c(Cl)cccc3Cl)ccn2)nc(NC(C)(C)CO)n1 [Example 585, 2,6-dichloro-N-(2-(6-ethyl-2-(1-hydroxy-2-methylpropan-2-ylamino)pyrimidin-4-ylamino)pyridin-4-yl)benzamide]"
9,< 3.5 µM,"CCc1cc(Nc2cc(NC(=O)c3c(Cl)cccc3Cl)ccn2)nc(NC2CCOCC2)n1 [Example 586, 2,6-dichloro-N-(2-(6-ethyl-2-(tetrahydro-2H-pyran-4-ylamino)pyrimidin-4-ylamino)pyridin-4-yl)benzamide]"
10,< 3.5 µM,"CCc1cc(Nc2cc(NC(=O)c3c(Cl)cccc3Cl)ccn2)nc(N[C@H](C)CO)n1 [Example 587, (R)-2,6-dichloro-N-(2-(6-ethyl-2-(1-hydroxypropan-2-ylamino)pyrimidin-4-ylamino)pyridin-4-yl)benzamide]"
11,< 3.5 µM,"Cc1coc(Nc2cc(NC(=O)c3c(Cl)cccc3Cl)ccn2)n1 [Example 588, 2,6-dichloro-N-(2-(4-methyloxazol-2-ylamino)pyridin-4-yl)benzamide]"
12,< 3.5 µM,"CN(C)c1nc(Nc2cc(NC(=O)c3c(Cl)cccc3Cl)ccn2)cc(C2CC2)n1 [Example 589, 2,6-dichloro-N-(2-(6-cyclopropyl-2-(dimethylamino)pyrimidin-4-ylamino)pyridin-4-yl)benzamide]"
13,< 3.5 µM,"O=C(Nc1ccnc(Nc2cc(C3CC3)nc(N3CCOCC3)n2)c1)c1c(Cl)cccc1Cl [Example 590, 2,6-dichloro-N-(2-(6-cyclopropyl-2-morpholinopyrimidin-4-ylamino)pyridin-4-yl)benzamide]"

# Continued, compound first:
row,Structure (SMILES),Ki
1,"O=C(Nc1ccnc(Nc2cc(C(F)(F)F)nc(N3CCCC3)n2)c1)c1c(Cl)cccc1Cl [Example 556, 2,6-dichloro-N-(2-(2-(pyrrolidin-1-yl)-6-(trifluoromethyl)pyrimidin-4-ylamino)pyridin-4-yl)benzamide]",< 3.5 µM
2,"O=C(Nc1ccnc(Nc2cc(C(F)(F)F)nc(N3CC[C@@H](O)C3)n2)c1)c1c(Cl)cccc1Cl [Example 557, (R)-2,6-dichloro-N-(2-(2-(3-hydroxypyrrolidin-1-yl)-6-(trifluoromethyl)pyrimidin-4-ylamino)pyridin-4-yl)benzamide]",< 3.5 µM
3,"O=C(Nc1ccnc(Nc2cc(C(F)(F)F)nc(N3CC[C@H](O)C3)n2)c1)c1c(Cl)cccc1Cl [Example 558, (S)-2,6-dichloro-N-(2-(2-(3-hydroxypyrrolidin-1-yl)-6-(trifluoromethyl)pyrimidin-4-ylamino)pyridin-4-yl)benzamide]",< 3.5 µM
4,"CC1CN(c2nc(Nc3cc(NC(=O)c4c(Cl)cccc4Cl)ccn3)cc(C(F)(F)F)n2)CC(C)O1 (centres unmarked) [Example 559, 2,6-dichloro-N-(2-(2-(2,6-dimethylmorpholino)-6-(trifluoromethyl)pyrimidin-4-ylamino)pyridin-4-yl)benzamide]",< 3.5 µM
5,"Cc1cc(Nc2cc(NC(=O)c3c(Cl)cccc3Cl)ccn2)n[nH]1 [Example 560, 2,6-dichloro-N-(2-(5-methyl-1H-pyrazol-3-ylamino)pyridin-4-yl)benzamide]",< 3.5 µM
6,"O=C(Nc1ccnc(Nc2cc(C3CC3)[nH]n2)c1)c1c(Cl)cccc1Cl [Example 561, 2,6-dichloro-N-(2-(5-cyclopropyl-1H-pyrazol-3-ylamino)pyridin-4-yl)benzamide]",< 3.5 µM
7,"Cc1cc(Nc2cc(NC(=O)c3c(Cl)cccc3Cl)ccn2)nc(C(O)CO)n1 (centres unmarked) [Example 562, 2,6-dichloro-N-(2-(2-(1,2-dihydroxyethyl)-6-methylpyrimidin-4-ylamino)pyridin-4-yl)benzamide]",< 3.5 µM
8,"CCc1cc(Nc2cc(NC(=O)c3c(Cl)cccc3Cl)ccn2)nc(N)n1 [Example 563, N-(2-(2-amino-6-ethylpyrimidin-4-ylamino)pyridin-4-yl)-2,6-dichlorobenzamide]",< 3.5 µM
9,"CC(C)c1cc(Nc2cc(NC(=O)c3c(Cl)cccc3Cl)ccn2)nc(N2CC[C@H](O)C2)n1 [Example 564, (S)-2,6-dichloro-N-(2-(2-(3-hydroxypyrrolidin-1-yl)-6-isopropylpyrimidin-4-ylamino)pyridin-4-yl)benzamide]",< 3.5 µM
10,"CC(C)c1cc(Nc2cc(NC(=O)c3c(Cl)cccc3Cl)ccn2)nc(N2CCC2)n1 [Example 565, N-(2-(2-(azetidin-1-yl)-6-isopropylpyrimidin-4-ylamino)pyridin-4-yl)-2,6-dichlorobenzamide]",< 3.5 µM
11,"CC(C)c1cc(Nc2cc(NC(=O)c3c(Cl)cccc3Cl)ccn2)nc(N)n1 [Example 566, N-(2-(2-amino-6-isopropylpyrimidin-4-ylamino)pyridin-4-yl)-2,6-dichlorobenzamide]",< 3.5 µM
12,"CC(C)c1cc(Nc2cc(NC(=O)c3c(Cl)cccc3Cl)ccn2)nc(N(CCO)CCO)n1 [Example 567, N-(2-(2-(bis(2-hydroxyethyl)amino)-6-isopropylpyrimidin-4-ylamino)pyridin-4-yl)-2,6-dichlorobenzamide]",< 3.5 µM
13,"O=C(Nc1ccnc(Nc2cc(C(F)(F)F)nc(N3CCN(CCO)CC3)n2)c1)c1c(Cl)cccc1Cl [Example 568, 2,6-dichloro-N-(2-(2-(4-(2-hydroxyethyl)piperazin-1-yl)-6-(trifluoromethyl)pyrimidin-4-ylamino)pyridin-4-yl)benzamide]",< 3.5 µM
14,"CNc1nc(Nc2cc(NC(=O)c3c(Cl)cccc3Cl)ccn2)cc(C(F)(F)F)n1 [Example 569, 2,6-dichloro-N-(2-(2-(methylamino)-6-(trifluoromethyl)pyrimidin-4-ylamino)pyridin-4-yl)benzamide]",< 3.5 µM
15,"CCc1cc(Nc2cc(NC(=O)c3c(Cl)cccc3Cl)ccn2)nc(N2CCN(C(C)=O)CC2)n1 [Example 570, N-(2-(2-(4-acetylpiperazin-1-yl)-6-ethylpyrimidin-4-ylamino)pyridin-4-yl)-2,6-dichlorobenzamide]",< 3.5 µM
16,"CCc1cc(Nc2cc(NC(=O)c3c(Cl)cccc3Cl)ccn2)nc(N2CCC(F)CC2)n1 [Example 571, 2,6-dichloro-N-(2-(6-ethyl-2-(4-fluoropiperidin-1-yl)pyrimidin-4-ylamino)pyridin-4-yl)benzamide]",< 3.5 µM
17,"CCc1cc(Nc2cc(NC(=O)c3c(Cl)cccc3Cl)ccn2)nc(N2CCC(F)(F)CC2)n1 [Example 572, 2,6-dichloro-N-(2-(2-(4,4-difluoropiperidin-1-yl)-6-ethylpyrimidin-4-ylamino)pyridin-4-yl)benzamide]",< 3.5 µM
18,"CCc1cc(Nc2cc(NC(=O)c3c(Cl)cccc3Cl)ccn2)nc(N2CCS(=O)(=O)CC2)n1 [Example 573, 2,6-dichloro-N-(2-(6-ethyl-2-(S-dioxa-thiomorpholino)pyrimidin-4-ylamino)pyridin-4-yl)benzamide]",< 3.5 µM
19,"O=C(Nc1ccnc(Nc2cc(C(F)(F)F)nc(N3CCC(F)CC3)n2)c1)c1c(Cl)cccc1Cl [Example 574, 2,6-dichloro-N-(2-(2-(4-fluoropiperidin-1-yl)-6-(trifluoromethyl)pyrimidin-4-ylamino)pyridin-4-yl)benzamide]",< 3.5 µM
20,"O=C(Nc1ccnc(Nc2cc(C(F)(F)F)nc(N3CCC(F)(F)CC3)n2)c1)c1c(Cl)cccc1Cl [Example 575, 2,6-dichloro-N-(2-(2-(4,4-difluoropiperidin-1-yl)-6-(trifluoromethyl)pyrimidin-4-ylamino)pyridin-4-yl)benzamide]",< 3.5 µM
21,"Cc1cc(Nc2cc(NC(=O)c3c(Cl)cccc3Cl)ccn2)nc(N2CCN(CCO)CC2)n1 [Example 576, 2,6-dichloro-N-(2-(2-(4-(2-hydroxyethyl)piperazin-1-yl)-6-methylpyrimidin-4-ylamino)pyridin-4-yl)benzamide]",< 3.5 µM
22,"CCc1cc(Nc2cc(NC(=O)c3c(Cl)cccc3Cl)ccn2)nc(N2CC[C@@H](O)C2)n1 [Example 577, (R)-2,6-dichloro-N-(2-(6-ethyl-2-(3-hydroxypyrrolidin-1-yl)pyrimidin-4-ylamino)pyridin-4-yl)benzamide]",< 3.5 µM
